Assay results: the supplement of paper PMC8291772
± gives the standard error. Some of the results follow. This data set is noisy: repeats of one test often differ as much as different tests do.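 Every DNA sequence of one to five nucleotides was in the library. Extension ability overall was judged using a cutoff equal to the blocked version's mean plus three standard deviations; the probe detects only chains with at least seven added dT.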

Amino acid sequences for entries named in this document (tags omitted). A change or cut given only in a name is not applied to a line headed by its entry.
UniProt P06526: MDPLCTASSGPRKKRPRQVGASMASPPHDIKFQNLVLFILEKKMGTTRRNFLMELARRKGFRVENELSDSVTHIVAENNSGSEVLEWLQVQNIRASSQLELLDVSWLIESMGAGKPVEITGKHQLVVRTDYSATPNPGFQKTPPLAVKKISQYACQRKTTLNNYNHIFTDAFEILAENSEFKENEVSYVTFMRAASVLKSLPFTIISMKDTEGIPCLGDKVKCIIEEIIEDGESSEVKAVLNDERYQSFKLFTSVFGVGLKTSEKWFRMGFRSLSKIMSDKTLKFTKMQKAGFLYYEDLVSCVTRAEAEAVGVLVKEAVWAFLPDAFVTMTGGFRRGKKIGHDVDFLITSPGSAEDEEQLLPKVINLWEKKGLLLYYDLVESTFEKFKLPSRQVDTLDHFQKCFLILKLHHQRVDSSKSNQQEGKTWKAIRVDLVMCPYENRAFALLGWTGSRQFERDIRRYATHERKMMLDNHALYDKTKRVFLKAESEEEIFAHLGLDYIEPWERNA

What follows are sequences tested against terminal deoxynucleotidyl transferase (calf thymus) (UniProt P06526) (assay: TdT poly-dT extension signal (Cy3 hybridisation fluorescence, uncapped minus capped) (fluorescence a.u.); higher = more efficient initiation of TdT extension). Conditions: initiator chemistry: D-DNA, free 3'-OH (5'-tethered via HEG linker).
Description: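 All mono- to pentamer initiator sequences were made by photolithographic in situ synthesis (reverse 5'->3' direction) on glass on a single hexaethylene glycol linker. Each was made in uncapped and DMTr-dT-capped versions, about 11 replicate features each. Arrays were extended with calf thymus TdT (0.2 U/uL) and 100 uM dTTP in TdT buffer with 0.25 mM CoCl2 for 120 min at 37 C, then hybridised with an rA18-Cy3 probe at 4 C and scanned at 532 nm. The value is the mean uncapped signal minus the mean capped signal of the same sequence.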

Sequence	TdT poly-dT extension signal
AAGCT	2970 ± 260
TAGA	3580 ± 400
GCCTA	3640 ± 330
TGAAC	3910 ± 240
GGCCA	3570 ± 370
ATCGT	3480 ± 320
AAAAA	4150 ± 610
ACTTA	3580 ± 410
GTGTC	3550 ± 180
CTTAG	3830 ± 470
GATAT	3790 ± 380
CTGGG	4590 ± 760
CAACT	3310 ± 300
AATA	3780 ± 280
AGATG	3350 ± 370
ATTTT	3910 ± 360
AGAGA	3250 ± 450
CGAGT	4070 ± 500
CTCGA	4210 ± 580
TTTCG	4240 ± 670
CCACG	3530 ± 650
CGTC	3080 ± 270
CATGG	3150 ± 450
CCTTA	3840 ± 340

Sequence	TdT poly-dT extension signal
TAAAC	3970 ± 180
CTTTG	4120 ± 330
TAAGA	4680 ± 560
GGTAC	3680 ± 600
AAAAC	2970 ± 300
TTTT	3570 ± 480
CTTTT	3960 ± 400
GATTT	4070 ± 410
CCCTG	4100 ± 360
CTCTG	4170 ± 610
ACGAT	4110 ± 230
TATCC	2390 ± 320
GTGCA	4270 ± 530
TCTCA	4070 ± 530
TACGG	3960 ± 350
CACAG	3750 ± 310
GACTC	3100 ± 220
ACGT	3930 ± 290
AGACG	4090 ± 280
AGCTA	3600 ± 380
CCCTT	3850 ± 490
TATCG	3990 ± 300
GCCG	3940 ± 640
AGTG	3130 ± 610

Sequence	TdT poly-dT extension signal
AAGAT	4510 ± 600
CAGAC	3040 ± 310
TAAAG	3830 ± 500
AAAGC	3520 ± 330
GTGCG	2990 ± 310
GAAA	2920 ± 460
GTGA	2720 ± 400
TCAAC	3870 ± 290
ACACG	4000 ± 260
GAGC	3820 ± 210
ATCT	4050 ± 240
TCCT	4050 ± 220
AGCCA	4280 ± 280
GTACT	3590 ± 230
TGATG	4140 ± 360
CGGC	3830 ± 360
CTGTC	3570 ± 290
GGTCT	3920 ± 370
CATTA	3800 ± 400
GGCAT	4520 ± 390
GCTA	2990 ± 330
GGATA	3980 ± 450
CTTGT	3690 ± 430
CTTCA	4120 ± 450

Sequence	TdT poly-dT extension signal
TTGTG	3600 ± 420
ATGCT	3420 ± 380
ATTAG	2660 ± 440
GCTGC	3540 ± 430
CCACA	4530 ± 370
GTAGG	4060 ± 300
CTATA	3770 ± 530
GTCAT	3520 ± 380
CCGCT	3380 ± 580
CCAAT	3720 ± 540
GATTA	4310 ± 650
CACCC	3430 ± 130
TGGTT	4010 ± 380
TCCTG	3000 ± 360
GAAG	3890 ± 440
CCAAC	3590 ± 180
TCTTT	3360 ± 460
TAAC	2550 ± 320
TGGAT	4470 ± 370
TCTCG	3360 ± 390
GGAGG	4510 ± 390
ATGGT	3880 ± 490
CAGG	3030 ± 530
ATTGA	3540 ± 420

In another format: entries from further up.
Sequence | TdT poly-dT extension signal
TAAC | 2550 ± 320
TGGAT | 4470 ± 370
TCTCG | 3360 ± 390
GGAGG | 4510 ± 390

Later entries:

Sequence	TdT poly-dT extension signal
GGTGC	3630 ± 300
CCTTC	2820 ± 320
CGCTA	3950 ± 190
CGGCC	3460 ± 230
ACACC	2860 ± 240
GTGT	3870 ± 260
ACCAC	3510 ± 300
AATCG	3390 ± 390
GTGAG	4230 ± 490
GTTCA	3030 ± 490
TCGCG	3870 ± 380
CCAGC	3390 ± 370
GAAAT	3600 ± 410
TCAGG	4350 ± 360
GCTTC	3040 ± 330
GTGTA	4350 ± 630
AAGTC	3540 ± 250
CATGA	4460 ± 560
AACGG	4190 ± 240
CATTC	3120 ± 260
TAACC	2360 ± 280
GGCGC	3380 ± 440
AGCCC	2510 ± 400
CTAAT	3650 ± 370

Sequence	TdT poly-dT extension signal
GGGAC	3520 ± 440
GTCAA	3830 ± 480
CGTA	2780 ± 380
CGCAA	4650 ± 480
TCCTA	2760 ± 330
AACAA	3590 ± 390
TTCCA	3120 ± 380
GAATA	4670 ± 610
AAAT	3430 ± 400
TGTGG	4160 ± 600
CCAC	3540 ± 410
TCAG	3220 ± 470
CATAG	3670 ± 370
GTGGG	4940 ± 490
CGCCG	3480 ± 400
CTCCG	3460 ± 420
CGGTA	3400 ± 430
CTGCG	4010 ± 190
ACAGC	3240 ± 320
GTTCG	3860 ± 520
GCCCT	3870 ± 270
ATTGC	3490 ± 190
TACAG	3770 ± 320
ATGAG	3860 ± 530

Sequence	TdT poly-dT extension signal
CTCCA	3250 ± 380
TGACG	4130 ± 510
AAGTA	3340 ± 370
AAGGC	3250 ± 560
TCCCA	3700 ± 310
CACTG	3930 ± 570
TGTGC	3540 ± 260
ATGCC	2100 ± 310
AGTAC	3990 ± 660
CCGGT	3820 ± 420
GAGTG	3460 ± 400
ATTGT	4320 ± 440
ACCGC	2770 ± 390
GTTTC	3590 ± 110
CTTTA	3620 ± 300
TAGGT	3470 ± 360
GTGAC	3330 ± 350
TGCGC	3080 ± 370
GACCA	3330 ± 330
TCCAG	3640 ± 440
CGAG	3970 ± 210
GCTGT	3760 ± 350
TTCGG	3680 ± 460
GTAG	3450 ± 290

Quoted from the listing for reference:
Sequence	TdT poly-dT extension signal
TCCAG	3640 ± 440
CGAG	3970 ± 210

Continued:

Sequence	TdT poly-dT extension signal
AGAGC	3080 ± 350
CAAAT	3890 ± 480
TTGGC	3370 ± 520
ACCAT	3670 ± 330
GCATC	3680 ± 410
CTATT	3550 ± 540
TTATA	4100 ± 450
TCCGC	3840 ± 310
CATAC	2610 ± 250
CTCGT	4000 ± 370
GACCG	3570 ± 370
TAAAA	4580 ± 490
ACCTA	3840 ± 340
GAGGT	4350 ± 500
AACAT	3570 ± 360
GCAT	3540 ± 280
AATAA	4630 ± 360
TTGTT	4600 ± 230
CGGAA	4680 ± 300
TCGTC	3390 ± 350
CAGGG	4370 ± 500
ATAAG	3170 ± 540
AAAG	4350 ± 270
TCGG	4020 ± 670

Sequence	TdT poly-dT extension signal
GCTAA	3970 ± 660
CCAGG	4360 ± 760
TGGGG	4470 ± 820
AGTCG	3490 ± 290
TCCTT	2950 ± 330
CGCTT	3560 ± 380
TATTC	3180 ± 400
GAGGA	4570 ± 460
GCAAG	4850 ± 320
TTCAT	4820 ± 450
CAAAG	4150 ± 380
AGTGC	3130 ± 310
CACAA	3750 ± 500
GCTGG	3290 ± 450
CCCC	3020 ± 370
ACCA	3990 ± 250
CTTAC	3300 ± 220
GGTCG	3560 ± 360
ACAA	3390 ± 380
TAATC	3100 ± 240
GAGGG	4130 ± 590
CTATC	3930 ± 510
